The record followed here is publication doi:10.1101/2024.12.04.626922.

No constants are given. Whether binding was seen depends on the method and setting. Binding seen in cells or lysates may run through a third protein. A result given as binding can be weak or reduced; the word gives no strength.

For this assay, the target named is T1, Ras-Associated Protein 2C (RAP2C) (UniProt Q9Y3L5).
T1 sequence: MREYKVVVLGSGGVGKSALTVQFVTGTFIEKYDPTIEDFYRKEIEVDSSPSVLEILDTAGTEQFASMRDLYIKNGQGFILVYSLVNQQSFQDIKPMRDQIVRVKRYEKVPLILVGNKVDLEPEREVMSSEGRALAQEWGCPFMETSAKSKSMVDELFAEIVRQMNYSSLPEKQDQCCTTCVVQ
The experiment in a line: co-IP.

With “mitogen-activated protein kinase kinase kinase kinase-4 (MAP4K4)”, the binding entry was “binds”.
